From patent publication US20210395651A1, “COMPOUNDS STABILIZING HYDROLASES IN LIQUIDS” (BASF SE, priority 2018, published 2021) come the findings set out here.

The nature of the data set: Textile cleaning tests (launder-O-meter) with fresh and 37° C. stored liquid laundry formulations. Conditions: for sum of ΔE of multi-stain monitor, T0: freshly prepared, wash 30° C., 60 minutes, 5 g/L; for sum of ΔE of multi-stain monitor, 1 week: stored 1 week at 37° C.; for sum of ΔE of multi-stain monitor, 2 weeks: stored 2 weeks at 37° C.; for sum of ΔE of multi-stain monitor, 4 weeks: stored 4 weeks at 37° C.; for sum of ΔE of multi-stain monitor, 6 weeks: stored 6 weeks at 37° C.; for sum of ΔE of multi-stain monitor, 8 weeks: stored 8 weeks at 37° C.

Setting [1] is: base formulation VII. (compound 2.5 wt%, no enzyme).
The mark [2] stands for this setting: base formulation X. (Savinase 16.0L 0.7 wt%, Lipolase 0.2 wt%, compound 2.5 wt%).
Setting [3] is: base formulation VIII. (Lipolase 0.2 wt%, compound 2.5 wt%).

Consider `CCCOC(=O)CC(O)(CC(=O)OCCC)C(=O)OCCC` [A.2, Tripropylcitrate], for which, under setting [1], the “sum of ΔE of multi-stain monitor, T0” value was 152; the “sum of ΔE of multi-stain monitor, 1 week” value is 152; the “sum of ΔE of multi-stain monitor, 2 weeks” value (“sum of ΔE … 2 weeks” below) was determined as 154; the “sum of ΔE of multi-stain monitor, 4 weeks” value (“sum of ΔE … 4 weeks” below) is 152. Moreover, under setting [1], the “sum of ΔE of multi-stain monitor, 6 weeks” value (“sum of ΔE … 6 weeks” below) came out at 152 and the “sum of ΔE of multi-stain monitor, 8 weeks” value (“sum of ΔE … 8 weeks” below) is recorded as 153. Moreover, under setting [2], the “sum of ΔE of multi-stain monitor, T0” value came out at 189; the “sum of ΔE of multi-stain monitor, 1 week” value stood at 187; the “sum of ΔE … 2 weeks” value is on record as 184; the “sum of ΔE … 4 weeks” value is 182. Moreover, under setting [2], the “sum of ΔE … 6 weeks” value came to 182 and the “sum of ΔE … 8 weeks” value amounted to 177.
`CCOC(=O)CC(CC(=O)OCC)(OC(C)=O)C(=O)OCC` [A.5, Acetyltriethylcitrate]: under setting [1], the “sum of ΔE of multi-stain monitor, T0” value turned out to be 154; the “sum of ΔE of multi-stain monitor, 1 week” value came to 155; the “sum of ΔE … 2 weeks” value is reported as 153; the “sum of ΔE … 4 weeks” value worked out at 153. For the same compound, under setting [1], the “sum of ΔE … 6 weeks” value is reported as 152 and the “sum of ΔE … 8 weeks” value is 153. For the same compound, under setting [2], the “sum of ΔE of multi-stain monitor, T0” value was 190; the “sum of ΔE of multi-stain monitor, 1 week” value was 187; the “sum of ΔE … 2 weeks” value amounted to 187; the “sum of ΔE … 4 weeks” value was 183. Moreover, under setting [2], the “sum of ΔE … 6 weeks” value is 180 and the “sum of ΔE … 8 weeks” value is on record as 180.
For `O=C(CC(O)(CC(=O)OCc1ccccc1)C(=O)OCc1ccccc1)OCc1ccccc1` [A.8, Tribenzylcitrate], under setting [1], the “sum of ΔE of multi-stain monitor, T0” value turned out to be 153; the “sum of ΔE of multi-stain monitor, 1 week” value was 153; the “sum of ΔE … 2 weeks” value amounted to 152; the “sum of ΔE … 4 weeks” value is listed as 152. For the same compound, under setting [1], the “sum of ΔE … 6 weeks” value worked out at 152 and the “sum of ΔE … 8 weeks” value was determined as 151. Moreover, under setting [2], the “sum of ΔE of multi-stain monitor, T0” value is on record as 191; the “sum of ΔE of multi-stain monitor, 1 week” value came to 189; the “sum of ΔE … 2 weeks” value was found to be 185; the “sum of ΔE … 4 weeks” value is 186. Moreover, under setting [2], the “sum of ΔE … 6 weeks” value is 182 and the “sum of ΔE … 8 weeks” value is reported as 176.
In the case of `CCOC(=O)C(=O)OCC` [B.3, diethyloxalate, reference compound], under setting [2], the “sum of ΔE of multi-stain monitor, T0” value is recorded as 190; the “sum of ΔE of multi-stain monitor, 1 week” value is reported as 187; the “sum of ΔE … 2 weeks” value is listed as 182; the “sum of ΔE … 4 weeks” value was 177. For the same compound, under setting [2], the “sum of ΔE … 6 weeks” value is 169 and the “sum of ΔE … 8 weeks” value came to 162.
With Diethylcitrate [A.7], under setting [3], the “sum of ΔE of multi-stain monitor, T0” value is listed as 182; the “sum of ΔE of multi-stain monitor, 1 week” value came to 179; the “sum of ΔE … 2 weeks” value is listed as 179; the “sum of ΔE … 4 weeks” value came out at 175. Moreover, the “sum of ΔE … 6 weeks” value under setting [3] worked out at 173.
